According to article PMC6334227:
These are yes or no findings as the source states them, for the method shown. In cells and extracts the contact can be indirect. Some entries that bind do so weakly or less than the wild type. Where a sequence is shown, tags or fusion partners need not be part of it.

Target: T1, BRD-1::tag (C. elegans) (UniProt Q21209)
T1 sequence: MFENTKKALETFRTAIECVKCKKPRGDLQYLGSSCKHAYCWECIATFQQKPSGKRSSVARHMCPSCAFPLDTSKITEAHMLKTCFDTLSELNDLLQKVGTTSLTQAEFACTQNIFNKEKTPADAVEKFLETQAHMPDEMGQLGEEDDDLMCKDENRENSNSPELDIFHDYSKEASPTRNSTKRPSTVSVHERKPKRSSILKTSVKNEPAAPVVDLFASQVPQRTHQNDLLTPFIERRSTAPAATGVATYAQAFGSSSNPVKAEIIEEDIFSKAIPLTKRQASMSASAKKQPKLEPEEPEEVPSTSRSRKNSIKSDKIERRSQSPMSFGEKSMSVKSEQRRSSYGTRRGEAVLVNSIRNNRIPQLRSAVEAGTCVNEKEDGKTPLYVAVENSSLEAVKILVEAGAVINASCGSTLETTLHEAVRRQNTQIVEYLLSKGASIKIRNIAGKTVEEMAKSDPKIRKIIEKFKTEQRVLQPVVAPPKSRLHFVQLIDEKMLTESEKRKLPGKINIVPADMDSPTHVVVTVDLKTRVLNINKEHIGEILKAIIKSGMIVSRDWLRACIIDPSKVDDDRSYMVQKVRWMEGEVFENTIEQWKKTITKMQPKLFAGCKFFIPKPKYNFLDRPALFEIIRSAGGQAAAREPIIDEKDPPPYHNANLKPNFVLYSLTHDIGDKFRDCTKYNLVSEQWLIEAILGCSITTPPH
Test: co-IP; tandem immunoaffinity purification of the native CeBCD complex from dwIs3 worms (HA then Myc antibody columns, TEV elution), Western blot; soluble (S) and chromatin-bound (C) fractions, untreated and 12 h after 75 Gy IR; mock purification as control

binding: binds
B1: BRC-1 (protein, UniProt B6VQ60 1-609)
chain: MADVALRITETVARLQKELKCGICCSTYKDPILSTCFHIFCRSCINACFERKRKVQCPICRSVLDKRSCRDTYQITMAVQNYLKLSEAFKKDIENMNTFKSLPPEKMFMESQMPLDITIIPENDGKRCAPDFAIPFLPVRRKRPSRPQPPSAFAEEPAEPVEPPEPATKQPVELQSRVFPLEKLKKDVETSTETYKISREELKNVDIEEYINTLRENSTEIDEIDALFQLMPTMRQFLRNNINQLMEKFHVAPPKKSEKPANRRVSFASSQDLENIKIMTASESLETPPEPIQKLAQKPEVFKSTQNLIDLNLNTAVKKPVVVASDDDEVVEDSEGELQIDEDDLANVTCATSSTTLDADRTPKAIQDDEDRIDDELSQVPKTIVCSRIHNDADEVELLSDFYHKFLSNACRFAEDVNEHTTHLVMMNSEGRSISQKSTAYLYAIARKCVIVGRQWLVDCITTGLLLSEADYTITSCSSTIPVKIPPSIGSEMGWLRSRNDEHGKLFAGRRFMILRKFTMNPYFDYKQLIELVQQCGGEILSCYENLSPEKLYIIFSKHSKAIEESKNIENLYKCDVVTMEWVLDSISEYLILPTQPYKAVDSIGCLQD
